From the supplement of paper PMC12613149

Assay: reversed-phase LC retention time (C18, 15 min MeOH gradient); higher = more hydrophobic / later elution
Details: ionization mode: ESI-; ion species: [M-H]-
Protocol: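 Reference mixture of environmental contaminants analysed by RP-LC (BEH C18, 50 °C; ESI+ with water/MeOH plus formic acid and ammonium formate, ESI- with ammonium bicarbonate) coupled to a timsTOF Pro 2 with trapped ion mobility in nitrogen (ramp/accumulation 100 ms). CCS was calibrated with Agilent tune mix (CCS compendium) and averaged over five injections at 0.5-500 ng/mL. The table reports the lowest-CCS (putative monomer) peak; retention times are on the same gradient.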

CC(C)(C)c1ccc(O)cc1 [4-tert-Butylphenol]
reversed-phase LC retention time: 14.4 min
